All values are in %. The controls that fix the scale are not given in the record; negative values are as filed. The compounds are a random part of those screened.

Protein sequences, listed by entry. Tags and fused reporters are not part of them.
UniProt E9BF75, entry or part of it: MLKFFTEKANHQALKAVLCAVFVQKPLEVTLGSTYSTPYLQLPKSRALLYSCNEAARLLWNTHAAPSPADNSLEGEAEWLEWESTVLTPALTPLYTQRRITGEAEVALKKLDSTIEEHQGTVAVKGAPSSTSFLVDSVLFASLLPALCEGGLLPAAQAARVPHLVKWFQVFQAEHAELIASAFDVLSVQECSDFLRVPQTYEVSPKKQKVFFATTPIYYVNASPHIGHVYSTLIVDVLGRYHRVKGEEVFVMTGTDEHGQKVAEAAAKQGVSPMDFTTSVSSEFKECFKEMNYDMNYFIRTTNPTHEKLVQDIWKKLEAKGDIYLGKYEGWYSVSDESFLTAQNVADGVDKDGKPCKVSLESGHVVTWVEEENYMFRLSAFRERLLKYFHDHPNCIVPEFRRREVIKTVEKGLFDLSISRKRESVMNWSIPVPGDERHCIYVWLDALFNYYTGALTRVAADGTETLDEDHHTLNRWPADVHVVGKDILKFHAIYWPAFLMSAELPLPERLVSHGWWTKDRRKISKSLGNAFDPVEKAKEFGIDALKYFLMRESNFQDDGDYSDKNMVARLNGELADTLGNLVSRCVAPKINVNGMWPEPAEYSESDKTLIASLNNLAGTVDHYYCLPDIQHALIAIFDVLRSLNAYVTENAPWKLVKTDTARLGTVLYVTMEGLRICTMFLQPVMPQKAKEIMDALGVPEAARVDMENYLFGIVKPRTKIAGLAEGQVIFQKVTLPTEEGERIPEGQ

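Primary screen of methionyl-tRNA synthetase; the read-out is not stated. Target: Methionyl-tRNA synthetase (putative), Leishmania donovani (UniProt E9BF75). The test concentration is not given. Values are per cent inhibition. About 68,000 compounds were tested under these conditions; 0.035% (about 24) showed 50% or more at least once.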

CCN1CCC2(CC1)OCCN2C(=O)c1ccc(OC)c(Cl)c1 read -11.11%. For O=C(c1ccccc1)N1CC(C(=O)N2CCOCC2)C2(CCOCC2)C1 (centres unmarked) the result was 4.255%. O=C(c1ccco1)N1C[C@@H]2CN(c3ccccn3)C[C@@H]2C1 gave 6.111%. For O=C1CC[C@H]2[C@@H](CCN2Cc2ccco2)N1 the result was 21.85%. With O=C(c1ccc[nH]1)N1CCc2nnc(Cn3cccn3)n2CC1 the screen gave 10.44%. With O=C(NC1(c2nnn(CC3CC3)n2)CCCC1)c1ccccc1 the screen gave 10.56%. NC(=O)CN1CCC(c2cncc(-c3cccc(Cl)c3)n2)CC1 gave 5.825%. Result for CS(=O)(=O)c1ccc(NC(=O)N2CCc3sccc3C2)cn1 was 14.29%.

For CCn1nnnc1-c1cccc(NC(=O)CCOC(C)C)c1 the result was 9.749%. Cc1cc(C)nc(C2CCCN2c2ccnc(C)n2)n1 (centres unmarked) read 6.431%. Result for Cc1cnc(C(=O)NCC2CCOc3ccccc3C2)cn1 (centres unmarked) was 5.775%. For Cn1ccc(C(=O)NCc2ccccc2CN2CCCCC2)cc1=O the result was 20.45%. For O=C(Cc1ccsc1)N1CCCC(c2n[nH]c3nccnc23)C1 (centres unmarked) the result was 5.137%. With Cc1cnn(CC(C)NCc2ccc(OCc3noc(C)n3)cc2)c1 (centres unmarked) the screen gave 16.33%. For c1cc(CN2CC[C@H]3O[C@@H](COCC4CCOCC4)CC[C@H]32)ccn1 the result was 11.94%. c1cnn(CC2CN(c3ncnc4c3CCC4)CCO2)c1 (centres unmarked) read 9.192%.

For CCN1CCN(C(=O)Cn2nc(C(F)(F)F)c(Br)c2C2CC2)CC1 the result was 18.28%. CC(C)c1ccc(C(O)CN2CCN(Cc3nccn3C)CC2)cc1 (centres unmarked) gave 20.99%. N#Cc1c(Cl)nsc1NCC1(c2ccccc2)CCC1 gave -3.073%. Result for CCN(CC)c1nc2sc(C(=O)NC(C)(C)C(=O)OC)cc2s1 was 5.944%. O=C(c1cc(-c2cccs2)cs1)N1CCOCC1 gave 15.58%. With CN1CCO[C@H]2CN(C(=O)c3ccncc3F)C[C@H]21 the screen gave 13.77%. Result for CN1CCCC(Cc2cncc(Br)c2)CC1 (centres unmarked) was 18.15%. For CC(C)N1CCOC(CC(=O)N2CC(c3ccncc3)C2)C1 (centres unmarked) the result was 2.35%.

For CCOc1ccc(C(=O)N2CCCS2(=O)=O)cc1OC the result was 18.79%. Result for Cn1c(C2CC2)nc2c1CCN(CC(=O)Nc1nncs1)C2 was 7.692%. CN(C)CC(=O)N1Cc2cc(-c3cc[nH]n3)ccc2C1c1cnco1 (centres unmarked) gave 8.333%. With Cc1cc(N2CCN(CC(=O)N(C)C)CC2)nc(-c2ccncc2)n1 the screen gave 23.94%. For CN(CC1(O)CCCN(c2ccccn2)C1)C(=O)CCc1cccs1 (centres unmarked) the result was 22.01%. With CCN(Cc1ccoc1)Cc1nc(COC)no1 the screen gave 8.824%. Result for O=C(NCc1ccoc1)NC1CCCN(c2ncccn2)C1 (centres unmarked) was 16.9%. Cc1nc(O)cc(C2CCCN(C(=O)CN(C)c3ccccc3)C2)n1 (centres unmarked) read 5.455%.

Cc1ccc(S(=O)(=O)N2CSCC2C(=O)N(C)C2CC2)cc1Cl (centres unmarked) gave 10.78%. With CC(C)Cc1noc(CNc2cccc(-c3nnnn3C)c2)n1 the screen gave 11.56%. For CN1CCOC(CNCCc2ccccn2)C1 (centres unmarked) the result was 9.859%. With O=C(CCCc1nc(-c2ccccc2)no1)N1CCN(CCO)CC1 the screen gave -1.807%. CC(CNC(=O)NCc1ccsc1)CC1(C)OCCO1 (centres unmarked) read 7.519%. With CN(C(=O)CC1=CCCCC1)C1CCCN(CCc2ccccc2)C1 (centres unmarked) the screen gave 0.7117%. O=S(=O)(Cc1ccccc1)NCc1ccco1 gave 10.62%. For Cn1cnc2c1CCN(Cc1nc(Cc3ccccc3)no1)C2 the result was 18.11%.

With O=C(Cn1cnc(NC(=O)c2ccccn2)n1)NCc1ccccc1 the screen gave 15.84%. For CNc1ncc(C(=O)N2CCCC(CO)(CCCOC)C2)cn1 (centres unmarked) the result was 3.484%. CC1COCCN1c1ncnc2sccc12 (centres unmarked) read 5.305%. With O=C(Cn1cc(I)cn1)N1CCc2ccccc2C1 the screen gave 12.86%. Result for Cc1nc(C)c(C(=O)NCCOc2ccc(C(F)(F)F)cn2)o1 was 11.28%. Cc1nn(C)c(C)c1CN1CCNCC1 gave 6.784%.

The values are deposited in ChEMBL (CHEMBL3988442, “University of Dundee, Small-Polar-MMV Screening Library” (2021)).